According to article PMC3635865:
At least one result comes from cells or an extract, where the contact may be indirect. For some of these results: A negative result means that nothing was seen under these conditions. For some of these results: Protein sequences can lack the tags named with them. For some of these results: For at least one entry, the source does not settle the construct or the ends of the probe.

Key:
Assay in all cases: pull-down
[1] = target: T1, RanGAP1 (endogenous) (human (HeLa)) (UniProt P46060); conditions: 600 mM NaCl; biotin-11-CTP incorporated; pull-down: 0.1% Triton X-100, 600 mM NaCl, 5 mM MgCl2, 1 mM DTT, 4 C, 1 h; protein in an extract; label: biotin; letters put together from the description
T1 sequence (looked up, limits assumed): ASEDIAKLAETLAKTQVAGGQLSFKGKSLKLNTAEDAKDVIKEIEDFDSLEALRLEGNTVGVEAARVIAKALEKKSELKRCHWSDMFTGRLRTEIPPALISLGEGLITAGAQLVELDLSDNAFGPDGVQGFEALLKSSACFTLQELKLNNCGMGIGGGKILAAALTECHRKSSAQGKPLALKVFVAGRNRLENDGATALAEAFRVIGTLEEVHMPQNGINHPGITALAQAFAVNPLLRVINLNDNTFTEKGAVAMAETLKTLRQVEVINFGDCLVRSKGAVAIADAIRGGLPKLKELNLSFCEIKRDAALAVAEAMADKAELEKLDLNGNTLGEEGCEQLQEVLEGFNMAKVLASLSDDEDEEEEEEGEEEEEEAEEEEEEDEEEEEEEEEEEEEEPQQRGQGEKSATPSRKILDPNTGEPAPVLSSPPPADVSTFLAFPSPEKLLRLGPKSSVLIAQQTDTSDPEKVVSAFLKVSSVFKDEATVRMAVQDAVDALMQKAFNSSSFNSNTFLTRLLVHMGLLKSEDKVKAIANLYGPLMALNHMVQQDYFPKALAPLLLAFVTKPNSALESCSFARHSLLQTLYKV

[2] = target: T2, Nup62 (endogenous) (human (HeLa)) (UniProt P37198); conditions: 600 mM NaCl; biotin-11-CTP incorporated; pull-down: 0.1% Triton X-100, 600 mM NaCl, 5 mM MgCl2, 1 mM DTT, 4 C, 1 h; protein in an extract; label: biotin; letters put together from the description
T2 sequence (looked up, limits assumed): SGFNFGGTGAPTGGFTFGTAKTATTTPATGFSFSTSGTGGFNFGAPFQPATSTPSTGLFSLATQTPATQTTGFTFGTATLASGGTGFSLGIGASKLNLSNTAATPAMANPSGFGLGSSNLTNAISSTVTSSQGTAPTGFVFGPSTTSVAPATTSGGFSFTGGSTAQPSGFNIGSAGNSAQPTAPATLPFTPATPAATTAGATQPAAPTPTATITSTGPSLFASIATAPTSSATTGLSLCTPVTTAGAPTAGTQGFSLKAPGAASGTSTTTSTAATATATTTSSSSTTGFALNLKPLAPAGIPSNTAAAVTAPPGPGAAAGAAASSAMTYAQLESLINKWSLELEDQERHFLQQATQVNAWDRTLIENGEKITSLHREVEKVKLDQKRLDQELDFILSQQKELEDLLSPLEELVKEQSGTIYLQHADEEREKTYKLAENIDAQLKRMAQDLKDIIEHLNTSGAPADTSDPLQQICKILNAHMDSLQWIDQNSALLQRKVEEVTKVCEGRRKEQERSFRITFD

[3] = target: Importin beta (endogenous) (human (HeLa)) (UniProt Q14974); conditions: silver stain, MS; biotin-11-CTP incorporated; pull-down: 0.1% Triton X-100, 600 mM NaCl, 5 mM MgCl2, 1 mM DTT, 4 C, 1 h; protein in an extract; label: biotin; letters put together from the description
[4] = target: Ubc9 (endogenous) (human (HeLa)) (UniProt P63279); conditions: silver stain, MS; biotin-11-CTP incorporated; pull-down: 0.1% Triton X-100, 600 mM NaCl, 5 mM MgCl2, 1 mM DTT, 4 C, 1 h; protein in an extract; label: biotin; letters put together from the description
[5] = target: T3, Nup153 (endogenous) (human (HeLa)) (UniProt P49790); conditions: 600 mM NaCl; biotin-11-CTP incorporated; pull-down: 0.1% Triton X-100, 600 mM NaCl, 5 mM MgCl2, 1 mM DTT, 4 C, 1 h; protein in an extract; label: biotin; letters put together from the description
T3 sequence (looked up, limits assumed): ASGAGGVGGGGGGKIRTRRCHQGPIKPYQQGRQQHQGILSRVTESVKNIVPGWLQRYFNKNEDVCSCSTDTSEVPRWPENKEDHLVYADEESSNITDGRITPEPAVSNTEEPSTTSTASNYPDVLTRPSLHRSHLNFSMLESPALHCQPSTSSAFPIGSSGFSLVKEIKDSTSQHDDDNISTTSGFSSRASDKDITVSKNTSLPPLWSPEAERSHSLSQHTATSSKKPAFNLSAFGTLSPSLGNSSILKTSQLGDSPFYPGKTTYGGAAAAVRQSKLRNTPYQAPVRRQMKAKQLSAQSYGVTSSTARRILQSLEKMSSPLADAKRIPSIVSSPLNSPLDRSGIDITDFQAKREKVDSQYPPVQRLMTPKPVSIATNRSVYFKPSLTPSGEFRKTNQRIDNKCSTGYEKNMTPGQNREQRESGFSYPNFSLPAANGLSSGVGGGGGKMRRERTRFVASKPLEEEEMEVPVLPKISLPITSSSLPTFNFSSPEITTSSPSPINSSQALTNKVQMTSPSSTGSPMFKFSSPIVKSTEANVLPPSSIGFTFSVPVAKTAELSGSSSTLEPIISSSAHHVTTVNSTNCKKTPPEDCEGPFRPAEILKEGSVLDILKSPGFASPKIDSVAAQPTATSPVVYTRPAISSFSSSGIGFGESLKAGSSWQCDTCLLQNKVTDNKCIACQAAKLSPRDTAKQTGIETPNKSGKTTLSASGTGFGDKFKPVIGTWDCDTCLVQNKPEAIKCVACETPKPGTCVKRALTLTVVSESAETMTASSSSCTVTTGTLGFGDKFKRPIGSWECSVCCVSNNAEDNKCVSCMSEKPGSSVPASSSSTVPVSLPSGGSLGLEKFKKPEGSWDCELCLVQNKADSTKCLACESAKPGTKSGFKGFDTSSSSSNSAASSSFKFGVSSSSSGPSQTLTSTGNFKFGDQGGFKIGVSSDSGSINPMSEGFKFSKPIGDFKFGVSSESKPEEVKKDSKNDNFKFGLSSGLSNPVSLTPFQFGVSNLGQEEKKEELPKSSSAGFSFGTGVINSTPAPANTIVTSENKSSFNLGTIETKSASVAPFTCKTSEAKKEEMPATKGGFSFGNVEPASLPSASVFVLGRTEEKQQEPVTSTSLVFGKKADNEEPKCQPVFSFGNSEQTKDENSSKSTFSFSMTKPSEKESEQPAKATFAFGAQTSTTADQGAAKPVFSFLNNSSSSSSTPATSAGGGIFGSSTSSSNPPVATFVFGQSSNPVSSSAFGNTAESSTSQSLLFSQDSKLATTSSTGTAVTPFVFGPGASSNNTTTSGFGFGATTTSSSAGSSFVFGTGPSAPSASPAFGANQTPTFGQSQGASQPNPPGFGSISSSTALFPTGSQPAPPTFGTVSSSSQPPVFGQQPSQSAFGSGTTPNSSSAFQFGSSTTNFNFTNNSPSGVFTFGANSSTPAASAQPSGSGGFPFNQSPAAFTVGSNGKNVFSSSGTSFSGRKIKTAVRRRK

[6] = target: Ran (endogenous) (human (HeLa)) (UniProt P62826); conditions: 600 mM NaCl; biotin-11-CTP incorporated; pull-down: 0.1% Triton X-100, 600 mM NaCl, 5 mM MgCl2, 1 mM DTT, 4 C, 1 h; protein in an extract; label: biotin; letters put together from the description
[7] = target: RanBP2/Nup358 (endogenous) (human (HeLa)) (UniProt P49792); conditions: 600 mM NaCl; biotin-11-CTP incorporated; pull-down: 0.1% Triton X-100, 600 mM NaCl, 5 mM MgCl2, 1 mM DTT, 4 C, 1 h; protein in an extract; label: biotin; letters put together from the description

| Sequence | binding result [1] | binding result [2] | binding result [3] | binding result [4] | binding result [5] | binding result [6] | binding result [7] |
| --- | --- | --- | --- | --- | --- | --- | --- |
| GGACCAUGGCCCUGUGGAUGCGCCUCCUGCCCCUGCUGGCGCUGCUGGCCCUCUGGGGACCUGACCCAGCCGCAGC [Ins biotinylated RNA (76 nt)] | binds | no binding | binds | binds | no binding | binds | binds |
| GGACCAUGGCACUGUGGAUGCGACUCCUACCCCUACUGGCACUGCUAGCCCUAUGGGGACCUGACCCAGCCGCAGC [7A-Ins biotinylated RNA (76 nt)] | no binding | – | – | – | – | no binding | no binding |
